Drug screen on melanoma cell lines: cell count

From a melanoma drug combination screen (doi:10.1371/journal.pone.0140310); values rounded.

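Human melanoma cells were exposed to two drugs together for 72 h in 1,536-well plates and read by automated microscopy after fixing and staining. Values are the number of DAPI-stained nuclei as a percentage of the DMSO control: 100 is no effect, lower means fewer cells. Every drug was used at one fixed concentration, the lower of two screened (a fifth of the higher). No replicate spread is given; individual values may be noisy.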 This is part of the screen, not chosen by result. A dash means that no value is listed here.

Drug key:
dasatinib: Cc1nc(Nc2ncc(C(=O)Nc3c(C)cccc3Cl)s2)cc(N2CCN(CCO)CC2)n1 at 4 nM
dorsomorphin: c1cc(-c2cnn3cc(-c4ccc(OCCN5CCCCC5)cc4)cnc23)ccn1 at 400 nM
vorinostat: O=C(CCCCCCC(=O)Nc1ccccc1)NO at 80 nM
PF-04217903: OCCn1cc(-c2cnc3nnn(Cc4ccc5ncccc5c4)c3n2)cn1 at 1000 nM
A-769662: N#Cc1c(O)c2c(-c3ccc(-c4ccccc4O)cc3)csc2[nH]c1=O at 2000 nM
everolimus: CO[C@H]1C[C@@H]2CC[C@@H](C)[C@@](O)(O2)C(=O)C(=O)N2CCCC[C@H]2C(=O)O[C@H]([C@H](C)C[C@@H]2CC[C@@H](OCCO)[C@H](OC)C2)CC(=O)[C@H](C)/C=C(\C)[C@@H](O)[C@@H](OC)C(=O)[C@H](C)C[C@H](C)/C=C/C=C/C=C/1C at 20 nM

| Cell line | PF-04217903 and dorsomorphin | A-769662 and PF-04217903 | dasatinib and everolimus | A-769662 and vorinostat | vorinostat and everolimus |
|---|---|---|---|---|---|
| A375 | 84.1 | 99.2 | 59.0 | 97.4 | 76.0 |
| COLO 800 | 113 | 82.1 | 76.6 | 99.3 | 69.1 |
| IPC-298 | 106 | 95.3 | 73.9 | 101 | 89.3 |
| LB2518-MEL | 110 | 95.8 | 76.9 | 105 | 74.7 |
| COLO 792 | 100 | 92.2 | 42.4 | 111 | 68.5 |
| G-361 | 95.7 | 104 | 45.9 | 91.1 | 64.5 |
| C32 | 101 | 92.4 | 89.5 | 95.0 | 97.2 |
| 501mel | 95.5 | 74.4 | - | 75.5 | - |
| LOX IMVI | 98.2 | 136 | 68.7 | 98.5 | 87.0 |
| COLO 829 | 123 | 81.7 | 59.6 | 108 | 89.9 |
| A2058 | 105 | 97.6 | 53.2 | 95.9 | 76.8 |
| IST-MEL1 | 103 | 96.9 | 74.1 | 106 | 81.5 |
| MEL-HO | 90.4 | 109 | 59.1 | 110 | 86.4 |
| A101D | 97.8 | 96.1 | 72.9 | 103 | 75.3 |